These are yes or no findings as the source states them, for the method shown. Binding seen in cells or lysates may run through a third protein. Some entries that bind do so weakly or less than the wild type.
Target: ABCF1 (UniProt Q6P542)
Assay: co-IP

By UniProt entry, the sequences of proteins in these tests, tags left out.
UniProt Q6P542: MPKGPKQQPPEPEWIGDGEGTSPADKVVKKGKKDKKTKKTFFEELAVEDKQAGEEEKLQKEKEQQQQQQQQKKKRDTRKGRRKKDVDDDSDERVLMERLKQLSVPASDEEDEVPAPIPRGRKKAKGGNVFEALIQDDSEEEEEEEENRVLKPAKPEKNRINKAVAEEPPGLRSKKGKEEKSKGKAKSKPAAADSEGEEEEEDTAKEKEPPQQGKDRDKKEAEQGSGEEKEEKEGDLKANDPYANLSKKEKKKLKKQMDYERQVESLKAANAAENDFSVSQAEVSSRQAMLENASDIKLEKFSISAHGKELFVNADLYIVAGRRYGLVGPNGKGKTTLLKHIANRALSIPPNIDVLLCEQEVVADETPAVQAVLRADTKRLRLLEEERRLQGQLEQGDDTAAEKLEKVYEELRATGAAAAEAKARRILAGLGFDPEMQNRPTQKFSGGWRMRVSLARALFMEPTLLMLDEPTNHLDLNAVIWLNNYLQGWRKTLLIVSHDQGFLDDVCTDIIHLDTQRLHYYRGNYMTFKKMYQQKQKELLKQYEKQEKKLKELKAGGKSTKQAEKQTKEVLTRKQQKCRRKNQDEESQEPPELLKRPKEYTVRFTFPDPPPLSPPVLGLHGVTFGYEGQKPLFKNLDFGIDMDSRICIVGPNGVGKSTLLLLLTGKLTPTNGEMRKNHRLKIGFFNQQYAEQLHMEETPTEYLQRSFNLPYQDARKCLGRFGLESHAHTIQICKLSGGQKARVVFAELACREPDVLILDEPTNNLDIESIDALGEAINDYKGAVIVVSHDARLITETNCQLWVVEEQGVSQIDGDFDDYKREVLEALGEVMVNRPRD

B1: OAS1a (protein, UniProt P11928 1-367)
chain: MEHGLRSIPAWTLDKFIEDYLLPDTTFGADVKSAVNVVCDFLKERCFQGAAHPVRVSKVVKGGSSGKGTTLKGKSDADLVVFLNNLTSFEDQLNRRGEFIKEIKKQLYEVQHERRFRVKFEVQSSWWPNARSLSFKLSAPHLHQEVEFDVLPAFDVLGHVNTSSKPDPRIYAILIEECTSLGKDGEFSTCFTELQRNFLKQRPTKLKSLIRLVKHWYQLCKEKLGKPLPPQYALELLTVFAWEQGNGCYEFNTAQGFRTVLELVINYQHLRIYWTKYYDFQHQEVSKYLHRQLRKARPVILDPADPTGNVAGGNPEGWRRLAEEADVWLWYPCFIKKDGSRVSSWDVPTVVPVPFEQVEENWTCILL
- binding: binds

Source: article doi:10.1101/2023.09.05.556419
